The list shows a part of the results.
What was measured:
Experiment in all cases: log2 fold change, soluble protein after heating vs DMSO (PISA); higher = thermal stabilisation; K562 cells, 10 uM, 30 min; active = over 0.2 and 3.5 SD of the protein, either way, in both replicates (recomputed)
[1] = compound: CC1=C(C=C(C=C1)NC(=O)C2=CC(=CC=C2)C(C)(C)C#N)NC3=CC4=C(C=C3)N=CN(C4=O)C
In short: (§1)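 Thermal stability values are relative to control samples and come from duplicates. They are expressed as log2 fold changes. For measurement, K562 cells (2×10^6 cells/mL) received 10 μM compound for 30 min, and aliquots were heated for 3 min over 48°C-58°C, pooled, and extracted at 4°C in PBS with 0.5% NP-40. Soluble protein, the supernatant after 21,000xg for 90 min, was quantified by TMTpro 16plex LC-MS/MS with equalised channel sums.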

Protein sequences, listed by entry. Tags and fused reporters are not part of them. Lines headed by an entry give the natural chain unless they say otherwise; changes in a name come on top.
UniProt P54868: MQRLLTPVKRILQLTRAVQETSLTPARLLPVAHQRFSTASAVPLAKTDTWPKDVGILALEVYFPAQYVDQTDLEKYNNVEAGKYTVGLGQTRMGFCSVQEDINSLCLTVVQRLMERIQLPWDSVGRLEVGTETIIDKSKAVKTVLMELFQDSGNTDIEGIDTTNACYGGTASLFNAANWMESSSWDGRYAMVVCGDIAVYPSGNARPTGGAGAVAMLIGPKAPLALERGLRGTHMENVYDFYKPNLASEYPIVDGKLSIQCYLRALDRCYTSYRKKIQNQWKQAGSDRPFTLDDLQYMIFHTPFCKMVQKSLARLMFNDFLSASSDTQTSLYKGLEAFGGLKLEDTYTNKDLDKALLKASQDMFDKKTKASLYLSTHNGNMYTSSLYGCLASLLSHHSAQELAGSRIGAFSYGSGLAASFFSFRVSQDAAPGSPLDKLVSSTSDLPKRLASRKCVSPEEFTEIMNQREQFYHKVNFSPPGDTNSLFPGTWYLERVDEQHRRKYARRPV
UniProt Q8TCT9: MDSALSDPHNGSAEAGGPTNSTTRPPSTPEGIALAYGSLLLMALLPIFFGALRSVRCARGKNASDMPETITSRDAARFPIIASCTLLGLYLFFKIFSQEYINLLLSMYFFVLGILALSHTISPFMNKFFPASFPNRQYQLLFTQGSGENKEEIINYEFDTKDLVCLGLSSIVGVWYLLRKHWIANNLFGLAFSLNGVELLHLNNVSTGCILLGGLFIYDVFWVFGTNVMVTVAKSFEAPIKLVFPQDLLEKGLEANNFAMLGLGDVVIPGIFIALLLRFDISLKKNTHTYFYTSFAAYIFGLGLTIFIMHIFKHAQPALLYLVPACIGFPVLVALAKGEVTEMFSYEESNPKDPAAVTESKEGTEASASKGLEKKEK
UniProt P41252: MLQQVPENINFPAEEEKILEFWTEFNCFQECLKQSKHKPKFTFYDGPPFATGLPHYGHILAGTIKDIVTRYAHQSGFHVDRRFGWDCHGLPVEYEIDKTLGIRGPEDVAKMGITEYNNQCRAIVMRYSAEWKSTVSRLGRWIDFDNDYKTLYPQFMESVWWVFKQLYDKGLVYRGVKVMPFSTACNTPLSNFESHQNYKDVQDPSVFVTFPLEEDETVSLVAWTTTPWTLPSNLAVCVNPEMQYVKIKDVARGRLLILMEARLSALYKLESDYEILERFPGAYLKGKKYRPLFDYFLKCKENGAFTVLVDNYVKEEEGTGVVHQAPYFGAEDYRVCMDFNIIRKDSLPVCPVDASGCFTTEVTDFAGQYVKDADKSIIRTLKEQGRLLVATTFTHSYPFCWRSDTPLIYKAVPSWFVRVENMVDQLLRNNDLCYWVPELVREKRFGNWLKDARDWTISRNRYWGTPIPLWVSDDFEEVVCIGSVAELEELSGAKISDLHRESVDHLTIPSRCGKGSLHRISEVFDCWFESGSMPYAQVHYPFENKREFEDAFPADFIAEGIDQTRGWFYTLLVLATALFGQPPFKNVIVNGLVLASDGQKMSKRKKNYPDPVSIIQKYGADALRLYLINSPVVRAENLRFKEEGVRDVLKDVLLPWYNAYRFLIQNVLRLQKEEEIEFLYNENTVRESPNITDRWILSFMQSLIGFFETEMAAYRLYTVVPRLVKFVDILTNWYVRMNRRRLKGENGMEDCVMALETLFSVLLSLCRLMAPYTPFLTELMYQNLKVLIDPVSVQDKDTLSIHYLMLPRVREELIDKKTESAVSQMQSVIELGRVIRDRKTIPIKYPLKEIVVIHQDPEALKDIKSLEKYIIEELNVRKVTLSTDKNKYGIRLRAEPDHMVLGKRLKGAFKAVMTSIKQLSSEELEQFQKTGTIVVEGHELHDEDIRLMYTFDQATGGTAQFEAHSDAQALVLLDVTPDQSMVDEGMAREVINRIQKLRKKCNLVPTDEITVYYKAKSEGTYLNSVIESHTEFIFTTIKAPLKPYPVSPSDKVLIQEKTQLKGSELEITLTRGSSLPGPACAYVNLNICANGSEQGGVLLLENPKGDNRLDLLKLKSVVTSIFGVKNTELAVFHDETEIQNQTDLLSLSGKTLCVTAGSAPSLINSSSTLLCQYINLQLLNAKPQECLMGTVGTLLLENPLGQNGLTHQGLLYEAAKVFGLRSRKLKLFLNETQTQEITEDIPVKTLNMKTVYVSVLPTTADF
UniProt P82970: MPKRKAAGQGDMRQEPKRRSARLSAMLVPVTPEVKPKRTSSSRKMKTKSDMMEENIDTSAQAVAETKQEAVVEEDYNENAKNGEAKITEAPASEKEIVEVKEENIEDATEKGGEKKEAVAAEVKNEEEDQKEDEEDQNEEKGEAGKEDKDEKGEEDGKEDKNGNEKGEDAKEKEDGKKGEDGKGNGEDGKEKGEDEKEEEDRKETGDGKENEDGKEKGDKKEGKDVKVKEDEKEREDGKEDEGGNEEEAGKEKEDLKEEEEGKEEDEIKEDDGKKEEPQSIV
UniProt Q5SSJ5: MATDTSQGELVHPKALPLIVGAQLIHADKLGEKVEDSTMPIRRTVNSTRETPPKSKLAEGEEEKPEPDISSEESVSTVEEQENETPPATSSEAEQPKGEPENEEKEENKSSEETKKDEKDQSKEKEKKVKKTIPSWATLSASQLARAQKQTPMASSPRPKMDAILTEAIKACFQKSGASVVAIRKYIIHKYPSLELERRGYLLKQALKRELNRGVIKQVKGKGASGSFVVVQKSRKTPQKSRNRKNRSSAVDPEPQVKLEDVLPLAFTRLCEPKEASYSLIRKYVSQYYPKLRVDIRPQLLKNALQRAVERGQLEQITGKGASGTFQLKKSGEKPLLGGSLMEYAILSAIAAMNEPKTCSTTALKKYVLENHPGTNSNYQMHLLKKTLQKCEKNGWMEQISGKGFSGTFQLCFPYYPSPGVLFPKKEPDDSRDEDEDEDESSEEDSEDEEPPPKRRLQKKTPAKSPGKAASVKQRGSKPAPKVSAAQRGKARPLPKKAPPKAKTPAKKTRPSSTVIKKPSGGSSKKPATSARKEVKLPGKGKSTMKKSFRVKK
UniProt P00492: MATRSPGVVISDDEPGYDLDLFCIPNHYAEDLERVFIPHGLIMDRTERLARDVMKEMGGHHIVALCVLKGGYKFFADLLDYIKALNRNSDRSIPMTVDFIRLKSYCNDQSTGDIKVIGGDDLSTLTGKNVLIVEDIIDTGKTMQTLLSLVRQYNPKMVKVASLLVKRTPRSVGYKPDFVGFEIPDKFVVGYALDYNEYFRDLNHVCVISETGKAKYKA
UniProt Q1KMD3: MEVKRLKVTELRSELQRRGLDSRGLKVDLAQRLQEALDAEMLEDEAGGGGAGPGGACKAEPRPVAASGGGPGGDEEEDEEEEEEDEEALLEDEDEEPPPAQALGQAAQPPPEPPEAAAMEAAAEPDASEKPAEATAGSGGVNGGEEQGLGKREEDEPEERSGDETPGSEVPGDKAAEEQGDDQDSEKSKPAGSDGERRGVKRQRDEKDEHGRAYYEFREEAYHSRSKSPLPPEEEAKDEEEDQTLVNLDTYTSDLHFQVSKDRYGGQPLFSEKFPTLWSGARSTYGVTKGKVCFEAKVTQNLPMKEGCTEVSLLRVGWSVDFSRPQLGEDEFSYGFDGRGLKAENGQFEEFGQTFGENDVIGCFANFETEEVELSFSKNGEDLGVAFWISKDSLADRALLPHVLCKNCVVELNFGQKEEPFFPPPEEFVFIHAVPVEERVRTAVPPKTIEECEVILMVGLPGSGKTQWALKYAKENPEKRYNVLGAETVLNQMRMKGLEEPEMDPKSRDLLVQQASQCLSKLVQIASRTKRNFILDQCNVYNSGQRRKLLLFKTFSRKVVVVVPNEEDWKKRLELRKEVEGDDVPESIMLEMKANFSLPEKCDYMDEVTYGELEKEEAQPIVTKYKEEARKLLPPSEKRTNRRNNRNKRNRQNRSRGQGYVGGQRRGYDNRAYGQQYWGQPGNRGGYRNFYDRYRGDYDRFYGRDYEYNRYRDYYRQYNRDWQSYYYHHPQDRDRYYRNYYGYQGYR
UniProt P51659: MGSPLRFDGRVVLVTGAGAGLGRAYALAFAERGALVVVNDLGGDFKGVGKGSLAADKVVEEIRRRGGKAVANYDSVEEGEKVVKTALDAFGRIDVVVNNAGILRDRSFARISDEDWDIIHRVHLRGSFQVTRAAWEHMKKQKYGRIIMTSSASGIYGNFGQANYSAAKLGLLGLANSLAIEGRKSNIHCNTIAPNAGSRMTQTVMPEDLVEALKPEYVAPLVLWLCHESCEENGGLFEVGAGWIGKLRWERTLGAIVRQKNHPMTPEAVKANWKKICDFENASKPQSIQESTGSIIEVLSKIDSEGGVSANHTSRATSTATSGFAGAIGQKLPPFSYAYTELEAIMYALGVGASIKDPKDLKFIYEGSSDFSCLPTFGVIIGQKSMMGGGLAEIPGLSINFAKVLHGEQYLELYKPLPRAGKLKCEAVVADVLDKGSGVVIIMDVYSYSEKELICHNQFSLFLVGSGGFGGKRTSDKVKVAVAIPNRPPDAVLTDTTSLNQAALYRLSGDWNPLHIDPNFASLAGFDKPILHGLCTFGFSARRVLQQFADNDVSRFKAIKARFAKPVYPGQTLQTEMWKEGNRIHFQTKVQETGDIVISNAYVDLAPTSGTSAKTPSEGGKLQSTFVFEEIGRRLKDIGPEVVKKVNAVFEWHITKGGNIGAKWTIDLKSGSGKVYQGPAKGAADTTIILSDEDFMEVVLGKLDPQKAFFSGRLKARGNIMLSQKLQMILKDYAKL
UniProt Q8IWL3: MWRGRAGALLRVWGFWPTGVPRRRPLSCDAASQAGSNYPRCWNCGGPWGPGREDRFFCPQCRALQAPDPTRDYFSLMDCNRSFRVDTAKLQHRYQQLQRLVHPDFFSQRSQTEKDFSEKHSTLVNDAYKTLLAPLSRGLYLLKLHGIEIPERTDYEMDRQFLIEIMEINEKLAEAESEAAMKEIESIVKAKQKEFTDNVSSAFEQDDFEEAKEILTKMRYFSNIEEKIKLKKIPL
UniProt P14625, whole entry, looked up: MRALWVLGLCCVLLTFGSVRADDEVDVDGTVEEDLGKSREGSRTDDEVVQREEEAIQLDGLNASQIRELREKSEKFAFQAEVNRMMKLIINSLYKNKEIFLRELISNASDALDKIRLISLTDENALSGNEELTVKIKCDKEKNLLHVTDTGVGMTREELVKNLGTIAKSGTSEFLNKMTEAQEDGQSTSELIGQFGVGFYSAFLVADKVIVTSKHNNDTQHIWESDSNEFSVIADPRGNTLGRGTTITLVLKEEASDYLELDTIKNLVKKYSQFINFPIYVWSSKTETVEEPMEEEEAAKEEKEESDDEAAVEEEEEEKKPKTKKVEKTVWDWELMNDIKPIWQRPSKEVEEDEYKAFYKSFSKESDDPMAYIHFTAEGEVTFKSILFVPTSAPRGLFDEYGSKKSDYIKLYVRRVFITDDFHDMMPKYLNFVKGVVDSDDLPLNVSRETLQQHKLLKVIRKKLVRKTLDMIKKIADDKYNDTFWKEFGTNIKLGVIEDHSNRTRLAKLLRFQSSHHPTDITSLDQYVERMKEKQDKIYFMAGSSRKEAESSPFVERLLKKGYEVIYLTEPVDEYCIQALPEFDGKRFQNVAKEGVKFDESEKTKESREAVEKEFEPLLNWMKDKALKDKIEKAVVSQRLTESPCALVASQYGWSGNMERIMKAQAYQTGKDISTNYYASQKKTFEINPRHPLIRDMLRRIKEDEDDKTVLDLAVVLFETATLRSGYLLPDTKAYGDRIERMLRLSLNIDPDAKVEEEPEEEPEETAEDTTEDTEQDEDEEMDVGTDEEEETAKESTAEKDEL
UniProt Q0VDF9: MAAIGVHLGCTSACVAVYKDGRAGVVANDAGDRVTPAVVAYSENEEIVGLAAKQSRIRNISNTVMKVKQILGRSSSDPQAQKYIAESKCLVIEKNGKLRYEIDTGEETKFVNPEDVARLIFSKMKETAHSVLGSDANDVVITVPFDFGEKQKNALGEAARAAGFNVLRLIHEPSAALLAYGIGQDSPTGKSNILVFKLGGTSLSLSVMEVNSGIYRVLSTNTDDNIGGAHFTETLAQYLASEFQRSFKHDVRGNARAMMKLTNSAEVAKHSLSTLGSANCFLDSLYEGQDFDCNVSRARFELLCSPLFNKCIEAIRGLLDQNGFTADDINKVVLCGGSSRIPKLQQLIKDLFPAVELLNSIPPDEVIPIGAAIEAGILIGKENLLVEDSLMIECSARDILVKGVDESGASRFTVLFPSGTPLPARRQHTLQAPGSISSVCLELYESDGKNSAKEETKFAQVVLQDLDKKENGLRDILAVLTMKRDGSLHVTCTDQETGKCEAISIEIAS
UniProt P22626: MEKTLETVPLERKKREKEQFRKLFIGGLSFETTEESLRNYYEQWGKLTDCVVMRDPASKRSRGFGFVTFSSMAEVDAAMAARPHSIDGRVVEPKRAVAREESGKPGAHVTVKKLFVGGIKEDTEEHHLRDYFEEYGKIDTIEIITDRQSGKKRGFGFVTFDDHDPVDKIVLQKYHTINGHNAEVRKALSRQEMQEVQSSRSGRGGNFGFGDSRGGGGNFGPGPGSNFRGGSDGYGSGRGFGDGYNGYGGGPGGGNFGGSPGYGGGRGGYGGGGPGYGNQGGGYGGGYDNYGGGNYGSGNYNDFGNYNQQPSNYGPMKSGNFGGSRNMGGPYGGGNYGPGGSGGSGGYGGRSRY

[2] = compound: CC1=C(C=C(C=C1)NC(=O)C2=CC(=CC=C2)N(C)C)NC(=O)C3=CC=C(C=C3)O
In short: as §1

[3] = compound: CC1=CC=C(C=C1)SC2=C3C=C(SC3=CN=C2)C(=O)N
In short: as §1

[4] = compound: CC1=NC(=CC=C1)C2=C(N=C(N2)C(C)(C)C)C3=CC4=NC=CN=C4C=C3
In short: as §1

Nexturastat A = compound: CCCCN(Cc1ccc(C(=O)NO)cc1)C(=O)Nc1ccccc1 [Nexturastat A]
In short: as §1

vemurafenib = compound: CCCS(=O)(=O)Nc1ccc(F)c(C(=O)c2c[nH]c3ncc(-c4ccc(Cl)cc4)cc23)c1F [vemurafenib]
In short: as §1

[5] = compound: CCCS(=O)(=O)Nc1ccc(F)c(C(=O)c2c[nH]c3ncc(Cl)cc23)c1F
In short: as §1

[6] = compound: CCCc1cc(C)[nH]c(=O)c1CNC(=O)c1cc(-c2ccnc(N3CCN(C)CC3)c2)cc2c1cnn2C(C)C
In short: as §1

givinostat = compound: CCN(CC)Cc1ccc2cc(COC(=O)Nc3ccc(C(=O)NO)cc3)ccc2c1 [givinostat]
In short: as §1

barasertib = compound: CCN(CCCOc1ccc2c(Nc3cc(CC(=O)Nc4cccc(F)c4)[nH]n3)ncnc2c1)CCOP(=O)(O)O [barasertib]
In short: as §1

Measured: log2 fold change

HIP1R (UniProt O75146)
inactive: [1] -0.028 | [2] -0.053 | [3] 0.003 | [4] -0.002 | Nexturastat A -0.047 | vemurafenib -0.026 | [5] 0.036 | [6] -0.006 | givinostat 0.059 | barasertib 0.041

HMGCS2 (UniProt P54868)
inactive: [1] 0.033

HM13 isoform 2 (UniProt Q8TCT9)
inactive: [1] 0.009 | [2] 0.05 | [3] 0.026 | [4] 0.003 | Nexturastat A -0.123 | vemurafenib -0.001 | [5] -0.013 | [6] -0.059 | givinostat 0.001 | barasertib -0.019

HMGCL (UniProt P35914)
inactive: [1] 0.009 | [2] 0.02 | [3] 0 | [4] 0.047 | Nexturastat A -0.005 | vemurafenib 0.019 | [5] -0.031 | [6] -0.067 | givinostat -0.037 | barasertib 0.022

HSPA8 (UniProt P11142)
inactive: [1] 0.021 | [2] 0.005 | [3] -0.025 | [4] 0.011 | Nexturastat A -0.011 | vemurafenib -0.008 | [5] -0.02 | [6] 0.04 | givinostat -0.02 | barasertib -0.005

HSPD1 (UniProt P10809)
inactive: [1] -0.01 | [2] 0.014 | [3] -0.031 | [4] 0.004 | Nexturastat A -0.022 | vemurafenib -0.028 | [5] -0.076 | [6] -0.008 | givinostat 0.003 | barasertib 0.001

HTATIP2 isoform 3 (UniProt Q9BUP3)
inactive: [1] 0.065 | [2] -0.093 | [3] 0.011 | [4] -0.007 | Nexturastat A -0.14 | vemurafenib 0.057 | [5] 0.039 | [6] 0.059 | givinostat 0.012 | barasertib 0.041

IARS (UniProt P41252)
inactive: [1] 0.047 | [2] 0.037 | [3] 0.001 | [4] -0.049 | Nexturastat A 0.382 | vemurafenib -0.03 | [5] 0.028 | [6] 0.115 | givinostat 0.134 | barasertib 0.015

HMGN5 (UniProt P82970)
inactive: [1] -0.01 | [2] 0.037 | [3] -0.025 | [4] 0.016 | Nexturastat A -0.055 | vemurafenib -0.028 | [5] 0.037 | [6] -0.047 | givinostat -0.045 | barasertib -0.028

HMOX2 (UniProt P30519)
inactive: [1] 0 | [2] -0.06 | [3] 0.036 | [4] -0.019 | Nexturastat A -0.023 | vemurafenib 0.034 | [5] 0.012 | [6] 0.097 | givinostat 0.015 | barasertib 0.042

HP1BP3 (UniProt Q5SSJ5)
inactive: [1] 0.03 | [2] -0.026 | [3] -0.025 | [4] 0.017 | Nexturastat A 0.108 | vemurafenib -0.014 | [5] 0.018 | [6] -0.001 | givinostat 0.031 | barasertib -0.129

HINT3 (UniProt Q9NQE9)
inactive: [1] 0.021 | [2] 0.021 | [3] 0.02 | [4] 0.024 | Nexturastat A 0.02 | vemurafenib 0.02 | [5] 0.01 | [6] 0.044 | givinostat 0.046 | barasertib 0.008

HNRNPUL1 (UniProt Q9BUJ2)
inactive: [1] -0.063 | [2] -0.058 | [3] -0.013 | [4] 0.03 | Nexturastat A 0.024 | vemurafenib 0.032 | [5] -0.033 | [6] 0.024 | givinostat 0.046 | barasertib 0.04

HIBADH (UniProt P31937)
inactive: [1] 0.004 | [2] 0.019 | [3] 0.006 | [4] 0.002 | Nexturastat A -0.011 | vemurafenib -0.017 | [5] 0 | [6] 0.009 | givinostat -0.009 | barasertib -0.005

IDE (UniProt P14735)
inactive: [1] 0.003 | [2] -0.084 | [3] 0.045 | [4] 0.008 | Nexturastat A 0.015 | vemurafenib 0.044 | [5] 0.026 | [6] -0.036 | givinostat 0.038 | barasertib 0.032

HMG20A (UniProt Q9NP66)
inactive: [1] -0.051 | [2] -0.009 | [3] -0.153 | [4] -0.016 | Nexturastat A 0.033 | vemurafenib 0.027 | [5] 0.016 | [6] 0.149 | givinostat 0.03 | barasertib 0.024

8 neighbouring entries out of the list so far:
HMGCL (UniProt P35914)
inactive: [1] 0.009 | [2] 0.02 | [3] 0 | [4] 0.047 | Nexturastat A -0.005 | vemurafenib 0.019 | [5] -0.031 | [6] -0.067 | givinostat -0.037 | barasertib 0.022

HSPA8 (UniProt P11142)
inactive: [1] 0.021 | [2] 0.005 | [3] -0.025 | [4] 0.011 | Nexturastat A -0.011 | vemurafenib -0.008 | [5] -0.02 | [6] 0.04 | givinostat -0.02 | barasertib -0.005

HSPD1 (UniProt P10809)
inactive: [1] -0.01 | [2] 0.014 | [3] -0.031 | [4] 0.004 | Nexturastat A -0.022 | vemurafenib -0.028 | [5] -0.076 | [6] -0.008 | givinostat 0.003 | barasertib 0.001

HTATIP2 isoform 3 (UniProt Q9BUP3)
inactive: [1] 0.065 | [2] -0.093 | [3] 0.011 | [4] -0.007 | Nexturastat A -0.14 | vemurafenib 0.057 | [5] 0.039 | [6] 0.059 | givinostat 0.012 | barasertib 0.041

IARS (UniProt P41252)
inactive: [1] 0.047 | [2] 0.037 | [3] 0.001 | [4] -0.049 | Nexturastat A 0.382 | vemurafenib -0.03 | [5] 0.028 | [6] 0.115 | givinostat 0.134 | barasertib 0.015

HMGN5 (UniProt P82970)
inactive: [1] -0.01 | [2] 0.037 | [3] -0.025 | [4] 0.016 | Nexturastat A -0.055 | vemurafenib -0.028 | [5] 0.037 | [6] -0.047 | givinostat -0.045 | barasertib -0.028

HMOX2 (UniProt P30519)
inactive: [1] 0 | [2] -0.06 | [3] 0.036 | [4] -0.019 | Nexturastat A -0.023 | vemurafenib 0.034 | [5] 0.012 | [6] 0.097 | givinostat 0.015 | barasertib 0.042

HP1BP3 (UniProt Q5SSJ5)
inactive: [1] 0.03 | [2] -0.026 | [3] -0.025 | [4] 0.017 | Nexturastat A 0.108 | vemurafenib -0.014 | [5] 0.018 | [6] -0.001 | givinostat 0.031 | barasertib -0.129

The list goes on.

HRAS (UniProt P01112)
inactive: [1] -0.042 | [2] -0.065 | [3] -0.031 | [4] 0.096 | Nexturastat A 0.147 | vemurafenib 0.064 | [5] -0.083 | [6] 0.089 | givinostat -0.065 | barasertib 0.063

HP (UniProt P00738)
inactive: [1] -0.603

HPRT1 (UniProt P00492)
inactive: [1] 0.015 | [2] 0.026 | [3] 0.026 | [4] 0.007 | Nexturastat A -0.087 | vemurafenib 0.026 | [5] 0.029 | [6] -0.018 | givinostat -0.174 | barasertib -0.027

ICAM4 (UniProt Q14773)
inactive: [1] 0.016 | [2] 0 | [3] 0.002 | [4] -0.042 | Nexturastat A -0.038 | vemurafenib 0.097 | [5] -0.06 | [6] -0.014 | givinostat -0.046 | barasertib 0.02

HSPB11 (UniProt Q9Y547)
inactive: [1] -0.003 | [2] -0.064 | [3] 0.087 | [4] 0.03 | Nexturastat A 0.004 | vemurafenib 0.016 | [5] 0.044 | [6] 0.071 | givinostat 0.101 | barasertib 0.058

HNRNPUL2 (UniProt Q1KMD3)
inactive: [1] 0.009 | [2] 0.008 | [3] -0.074 | [4] -0.032 | Nexturastat A 0.109 | vemurafenib -0.047 | [5] -0.027 | [6] -0.002 | givinostat 0.047 | barasertib -0.027

HSD17B4 (UniProt P51659)
inactive: [1] 0.032 | [2] 0.018 | [3] -0.007 | [4] -0.003 | Nexturastat A -0.051 | vemurafenib 0.002 | [5] -0.009 | [6] -0.031 | givinostat -0.026 | barasertib 0.004

HSCB (UniProt Q8IWL3)
inactive: [1] 0.064 | [2] -0.078 | [3] 0.019 | [4] -0.051 | Nexturastat A -0.22 | vemurafenib 0.054 | [5] -0.009 | [6] 0.084 | givinostat 0.202

HNRNPDL (UniProt O14979)
inactive: [1] 0.008 | [2] 0.008 | [3] -0.101 | [4] -0.061 | Nexturastat A 0.104 | vemurafenib -0.072 | [5] -0.091 | [6] 0.072 | givinostat -0.069 | barasertib -0.161

HSD17B12 (UniProt Q53GQ0)
inactive: [1] 0.094 | [2] 0.032 | [3] 0 | [4] 0.022 | Nexturastat A -0.111 | vemurafenib -0.006 | [5] -0.01 | [6] -0.141 | givinostat -0.018 | barasertib -0.04

HSP90B1 (UniProt P14625)
inactive: [1] -0.029 | [2] -0.001 | [3] 0.007 | [4] -0.004 | Nexturastat A -0.039 | vemurafenib 0.006 | [5] -0.006 | [6] 0.084 | givinostat -0.008 | barasertib 0.006

HSPA14 (UniProt Q0VDF9)
inactive: [1] -0.026 | [2] -0.006 | [3] 0.023 | [4] 0.018 | Nexturastat A 0.175 | vemurafenib 0.01 | [5] 0.05 | [6] 0.054 | givinostat 0.099 | barasertib 0.074

HNRNPR isoform 2 (UniProt O43390)
inactive: [1] 0.113 | [2] -0.01 | [3] -0.028 | [4] -0.034 | Nexturastat A 0.16 | vemurafenib -0.068 | [5] -0.02 | [6] 0.066 | givinostat 0.024 | barasertib -0.126

HNRNPA2B1 (UniProt P22626)
inactive: [1] 0.051 | [2] 0.072 | [3] -0.151 | [4] -0.1 | Nexturastat A 0.256 | vemurafenib -0.031 | [5] -0.037 | [6] 0.035 | givinostat 0.036 | barasertib -0.16

HKDC1 (UniProt Q2TB90)
inactive: [1] -0.004 | [2] -0.049 | [3] 0.007 | [4] 0.058 | Nexturastat A -0.196 | vemurafenib -0.026 | [5] -0.024 | [6] -0.02 | givinostat -0.014 | barasertib 0.048

Source: the supplement of paper PMC10849652
